Results from PMC3807668, “Structure of the CRISPR Interference Complex CSM Reveals Key Similarities with Cascade” (Molecular Cell, 2013).
No constants are given. Whether binding was seen depends on the method and setting. Some results given as binding are weak or reduced against the parent protein; the word gives no strength.

Experiments:
[1] = target: T1, Sso1432 (S. solfataricus (endogenous in S. solfataricus)) (UniProt Q97YA0); assay: cross-linking; purified CSM complex (1 ug/ul) with a 1:1 mixture of d4 and d0 BS3, 1 hr at room temperature; cross-linked peptides found by MS (MassMatrix) and validated by hand; both purified
T1 sequence (chain, methylation (residues not printed)): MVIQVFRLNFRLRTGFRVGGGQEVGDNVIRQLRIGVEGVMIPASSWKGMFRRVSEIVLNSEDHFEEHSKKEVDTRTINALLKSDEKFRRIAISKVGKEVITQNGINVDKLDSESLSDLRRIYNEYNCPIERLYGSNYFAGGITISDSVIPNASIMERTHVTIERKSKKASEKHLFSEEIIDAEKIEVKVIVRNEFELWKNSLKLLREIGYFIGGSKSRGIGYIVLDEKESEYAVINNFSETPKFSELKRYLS

[2] = target: T2, Sso1426 (S. solfataricus (endogenous in S. solfataricus)) (UniProt Q97YA6); assay: as above
T2 sequence (chain, methylation (residues not printed)): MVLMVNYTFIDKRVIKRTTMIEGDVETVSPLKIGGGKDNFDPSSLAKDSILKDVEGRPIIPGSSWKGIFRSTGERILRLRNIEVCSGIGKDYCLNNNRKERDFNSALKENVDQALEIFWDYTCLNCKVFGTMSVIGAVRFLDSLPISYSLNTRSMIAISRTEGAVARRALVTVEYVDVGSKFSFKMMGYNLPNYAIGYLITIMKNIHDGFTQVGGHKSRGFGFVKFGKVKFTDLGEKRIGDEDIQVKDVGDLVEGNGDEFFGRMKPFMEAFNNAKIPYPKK

B1: Sso1425 (natural protein, UniProt Q97YA7 1-250, looked up)
chain: MKMSCMDLDVITTVVKIEGKLRNETLLRVGKGKTQDFAEATDNPIIKYRDRPLIPGSSLKGAFRSLVESYTKSLNDSKYYVCDLDDNSCVSCEEKKKDNGIVEGRYCIPCILFGFKDLASRVYILDAIAEKYSISQRTMVAINRVFGGQMPGHLYTLDYVDPGSEFSFMMMIYNLNLIEGEKDWKAKSVEALKFLLATLVREGIFVGARKSVGYGLIKLVDAKVSLYKAPDHLVSPVIVKKLEEVIGTNG
modifications: methylation; phosphorylation (residues not given)
notes: Sso1425, RAMP subunit of the CSM complex of S. solfataricus; also called RAMP subunit; Csm3 paralog; source: endogenous, S. solfataricus PH1-16; co-purified with the tagged subunit (HisTrap, monoQ, gel filtration)
In the case of B1, the binding [1] is reported as “binds” and the binding [2] is reported as “binds”.
